Publication PMC10850970, “Characterization of N-glycosylation and its functional role in SIDT1-Mediated RNA uptake”

Sequences of proteins named here, by UniProt entry; tags and fusion partners are left off. Residues count along the entry.
UniProt Q9NXL6, 23-310: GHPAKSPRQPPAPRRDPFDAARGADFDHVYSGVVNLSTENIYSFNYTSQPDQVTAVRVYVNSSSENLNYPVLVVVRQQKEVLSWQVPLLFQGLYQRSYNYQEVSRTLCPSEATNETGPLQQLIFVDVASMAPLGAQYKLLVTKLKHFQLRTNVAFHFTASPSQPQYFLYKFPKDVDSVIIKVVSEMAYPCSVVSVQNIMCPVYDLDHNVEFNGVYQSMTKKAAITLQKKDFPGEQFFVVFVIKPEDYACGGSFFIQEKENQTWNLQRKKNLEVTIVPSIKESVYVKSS

Key:
[1] = molecular target: SIDT1 ECD, kifunensine-treated (Homo sapiens) (UniProt Q9NXL6); assay: EMSA; settings: pH 5.5, kifunensine, no shift up to 20 uM; EMSA: 40 mM Tris-acetate pH 5.5, 100 mM NaCl, 2.5 mM EDTA, 5% glycerol, RT 30 min, 2.5 uM RNA; recombinant protein; residues 23-310; label: 5'-FAM
[2] = molecular target: SIDT1 ECD-Fc, PNGase F-treated (Homo sapiens) (UniProt Q9NXL6); assay: EMSA; settings: pH 5.5, PNGase F-treated, legend says FAM-labeled RNA; EMSA: 40 mM Tris-acetate pH 5.5, 100 mM NaCl, 2.5 mM EDTA, 5% glycerol, RT 30 min, 2.5 uM RNA; recombinant protein; residues 23-310; protein details: C-terminal Fc; label: 5'-FAM

Sequence: UCGCUUGGUGCAGAUCGGGAC [FAM-ssRNA 21 nt]
- binding result [1]: no binding
- binding result [2]: binds more weakly

For some assays here: Negatives hold for the conditions tested. For some assays here: Construct, isoform or probe ends are uncertain for at least one entry. For some assays here: A weaker result is weaker than the reference pair of the same experiment.
